Some results were stated once for a whole list of compounds, not compound by compound.
Assay: Epimerase assay coupled to transcarboxylase and malate dehydrogenase, crude E. coli extracts
Assay type: biochemical
Conditions: crude extracts versus control pET vector
Description: Cells of strain BL2] (DE3) containing pET-epsherm, pET-epcoel, pET-epsub, or a control pET vector were grown overnight at 37° C. in 2 mL LB containing 100 μg/ml carbenicillin. The starter culture (250 μL) was used to inoculate 25 mL LB containing 100 μg/ml carbenicillin. The cultures were grown at 37° C. to an OD of approximately 0.4, then induced with IPTG to 1 mM final concentration and grown for an additional 3 hours at 30° C. The cells were collected by centrifugation at 4000 rpm for 10 minutes, and the pellets were stored at −80° C. prior to assay. […]
Epimerase activity was measured in crude extracts of E. coli harboring either pET-epsherm, pET-epcoel, pET-epsub, or a control pET vector. The epimerase assay couples transcarboxylase, which converts (S)-methylmalonyl-CoA into propionyl-CoA, to malate dehydrogenase, which converts NADH into NAD^+, producing a decrease in absorbance at 340 nm. […] When an extract containing epimerase is added to the assay, the (R)-isomer is converted to (S)—, resulting in a further decrease in absorbance. […]
The pellet from approximately 20 mL of culture was thawed and resuspended in 2 mL 1X assay buffer containing a protease inhibitor cocktail tablet. […] The reaction was initiated with (2R,2S)-methylmalonyl-CoA and the decrease in absorbance at 340 nm was monitored, reflecting the disappearance of the 2S isomer. […]

B1: P. shermanii epimerase: methylmalonyl-CoA epimerase from Propionibacterium shermanii expressed in E. coli, SEQ ID NO: 2 (protein)
chain: MSNEDLFICIDHVAYACPDADEASKYYQETFGWHELHREENPEQGVVEIMMAPAAKLTEHMTQVQVMAPLNDESTVAKWLAKHNGRAGLHHMAWRVDDIDAVSATLRERGVQLLYDEPKLGTGGNRINFMHPKSGKGVLIELTQYPKN
modifications: Deduced amino acid sequence of the epimerase gene sequence
specific activity, times higher than that of the control: at least 10
